Experimental data: PubChem BioAssay AID1259425 (University of Nebraska Medical Center, 2018)
Shown is a random part of about 14,000 reagents tested. The numbers tell different reagents against one gene apart. A reagent listed more than once was tested more than once; the source does not tell the runs apart. Further read-outs or replicates are left out here. Not stated in the record: the time to read-out.

Aim: 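Find knockdowns that reproduce the gene expression pattern seen when KSR1 is lost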 (primary screen)
Cell system: HCT116 human colon cancer cells
Reagent: siRNA pool against human genes, 50 nM siRNA
Read-out: 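After 50 nM siRNA pool, branched-DNA assay measures six marker transcripts per well, minus blank, normalised to the geometric mean of two housekeeping transcripts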
Scale: BNIP3L mRNA: higher = more BNIP3L transcript after knockdown

The opening 2 entries, to show the layout:
no.	gene symbol	reagent	BNIP3L mRNA, set 1
1	SHQ1	1	0.0737
2	MSMO1	1	0.15

The listing, repeating the preview:
no.	gene symbol	reagent	BNIP3L mRNA, set 1
1	SHQ1	1	0.0737
2	MSMO1	1	0.15
3	TBC1D19	1	0.0671
4	CDC5L	1	0.0833
5	LINC01547	1	0.195
6	LINC01547	2	0.0787
7	ACAT2	1	0.11
8	GSTM1	1	0.0876
9	BOLA1	1	0.0861
10	SMG7	1	0.048
11	SPINK5	1	0.0899
12	HMGA1	1	0.121
13	KYNU	1	0.0693
14	BAIAP2	1	0.0656
15	ANKS1A	1	0.103
16	KAZN	1	0.0994
17	PIK3CG	1	0.138
18	PIK3CG	1	0.205
19	PSMC5	1	0.441
20	SLC25A4	1	0.105
